In the supplement of paper PMC10849652:
The list shows a part of the results.

The chains behind the UniProt entries cited, without tags or fusion partners. Where a name states a change or a piece, a line headed by the entry shows the natural chain unless it says otherwise.
UniProt Q8TD26: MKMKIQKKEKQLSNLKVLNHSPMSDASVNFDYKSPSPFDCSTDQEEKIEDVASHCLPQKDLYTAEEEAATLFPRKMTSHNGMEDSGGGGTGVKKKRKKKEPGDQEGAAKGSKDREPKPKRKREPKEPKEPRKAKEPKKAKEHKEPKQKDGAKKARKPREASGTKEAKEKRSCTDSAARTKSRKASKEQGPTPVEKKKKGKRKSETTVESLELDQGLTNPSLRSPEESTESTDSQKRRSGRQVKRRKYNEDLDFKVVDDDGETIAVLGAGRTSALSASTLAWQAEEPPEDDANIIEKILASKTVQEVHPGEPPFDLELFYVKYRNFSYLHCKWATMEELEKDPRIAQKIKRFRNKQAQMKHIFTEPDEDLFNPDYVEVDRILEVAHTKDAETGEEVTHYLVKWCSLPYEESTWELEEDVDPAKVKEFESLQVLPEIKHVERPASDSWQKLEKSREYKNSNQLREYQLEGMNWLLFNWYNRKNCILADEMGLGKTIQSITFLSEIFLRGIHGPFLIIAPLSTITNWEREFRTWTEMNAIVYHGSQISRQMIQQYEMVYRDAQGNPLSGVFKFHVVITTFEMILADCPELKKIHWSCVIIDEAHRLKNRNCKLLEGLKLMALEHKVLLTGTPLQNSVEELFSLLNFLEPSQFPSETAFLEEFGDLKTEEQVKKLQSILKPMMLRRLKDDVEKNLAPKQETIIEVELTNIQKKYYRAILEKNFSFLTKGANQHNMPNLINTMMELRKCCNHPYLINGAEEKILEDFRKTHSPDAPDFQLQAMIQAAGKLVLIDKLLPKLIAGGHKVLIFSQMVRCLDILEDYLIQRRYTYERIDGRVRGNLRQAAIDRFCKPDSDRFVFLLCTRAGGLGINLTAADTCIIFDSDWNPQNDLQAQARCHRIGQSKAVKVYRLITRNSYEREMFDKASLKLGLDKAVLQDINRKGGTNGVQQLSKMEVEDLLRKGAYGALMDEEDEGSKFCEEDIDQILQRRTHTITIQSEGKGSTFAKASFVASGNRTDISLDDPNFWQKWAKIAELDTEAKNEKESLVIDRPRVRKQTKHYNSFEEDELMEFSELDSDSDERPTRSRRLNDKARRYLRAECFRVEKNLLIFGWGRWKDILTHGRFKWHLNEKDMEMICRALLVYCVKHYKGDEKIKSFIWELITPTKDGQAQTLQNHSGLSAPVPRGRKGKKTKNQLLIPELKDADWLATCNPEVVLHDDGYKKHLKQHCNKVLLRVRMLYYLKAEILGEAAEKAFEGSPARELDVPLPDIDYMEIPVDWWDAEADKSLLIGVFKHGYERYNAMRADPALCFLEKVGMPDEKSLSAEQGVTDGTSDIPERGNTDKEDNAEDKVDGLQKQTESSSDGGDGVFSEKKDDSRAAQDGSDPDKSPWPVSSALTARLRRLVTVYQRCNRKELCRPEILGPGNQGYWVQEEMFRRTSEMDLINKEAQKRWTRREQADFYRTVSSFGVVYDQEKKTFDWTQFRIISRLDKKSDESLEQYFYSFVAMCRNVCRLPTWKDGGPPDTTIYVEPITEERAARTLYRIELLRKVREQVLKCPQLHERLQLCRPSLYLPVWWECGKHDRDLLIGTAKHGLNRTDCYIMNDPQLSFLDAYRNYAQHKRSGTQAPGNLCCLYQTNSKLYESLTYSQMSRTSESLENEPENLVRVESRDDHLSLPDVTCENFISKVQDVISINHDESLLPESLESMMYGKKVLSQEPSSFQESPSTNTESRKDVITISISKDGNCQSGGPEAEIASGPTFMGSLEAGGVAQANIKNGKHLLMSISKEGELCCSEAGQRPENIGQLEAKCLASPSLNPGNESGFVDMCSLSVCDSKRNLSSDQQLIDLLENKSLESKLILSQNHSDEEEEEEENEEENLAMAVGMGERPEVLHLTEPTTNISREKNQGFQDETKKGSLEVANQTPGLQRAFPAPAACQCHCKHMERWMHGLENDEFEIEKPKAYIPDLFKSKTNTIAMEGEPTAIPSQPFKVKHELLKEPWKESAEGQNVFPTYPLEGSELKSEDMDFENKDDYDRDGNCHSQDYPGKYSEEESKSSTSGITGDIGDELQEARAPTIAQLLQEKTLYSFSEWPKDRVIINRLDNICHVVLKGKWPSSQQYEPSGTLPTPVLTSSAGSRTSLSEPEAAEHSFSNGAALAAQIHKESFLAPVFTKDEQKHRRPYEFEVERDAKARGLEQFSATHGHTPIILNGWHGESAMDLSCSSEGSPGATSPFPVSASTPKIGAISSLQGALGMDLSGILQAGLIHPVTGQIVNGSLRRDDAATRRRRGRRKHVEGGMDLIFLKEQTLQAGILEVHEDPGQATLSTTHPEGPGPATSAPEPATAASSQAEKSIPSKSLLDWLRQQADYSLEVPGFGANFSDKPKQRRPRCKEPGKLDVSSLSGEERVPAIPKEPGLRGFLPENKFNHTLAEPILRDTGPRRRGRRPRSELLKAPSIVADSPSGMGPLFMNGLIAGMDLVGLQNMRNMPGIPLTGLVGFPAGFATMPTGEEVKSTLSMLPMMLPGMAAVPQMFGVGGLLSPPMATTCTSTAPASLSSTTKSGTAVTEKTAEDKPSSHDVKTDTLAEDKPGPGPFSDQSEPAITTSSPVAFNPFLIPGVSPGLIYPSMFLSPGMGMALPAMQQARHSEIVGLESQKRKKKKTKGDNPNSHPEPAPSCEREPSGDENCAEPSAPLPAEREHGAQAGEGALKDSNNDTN
UniProt P49454: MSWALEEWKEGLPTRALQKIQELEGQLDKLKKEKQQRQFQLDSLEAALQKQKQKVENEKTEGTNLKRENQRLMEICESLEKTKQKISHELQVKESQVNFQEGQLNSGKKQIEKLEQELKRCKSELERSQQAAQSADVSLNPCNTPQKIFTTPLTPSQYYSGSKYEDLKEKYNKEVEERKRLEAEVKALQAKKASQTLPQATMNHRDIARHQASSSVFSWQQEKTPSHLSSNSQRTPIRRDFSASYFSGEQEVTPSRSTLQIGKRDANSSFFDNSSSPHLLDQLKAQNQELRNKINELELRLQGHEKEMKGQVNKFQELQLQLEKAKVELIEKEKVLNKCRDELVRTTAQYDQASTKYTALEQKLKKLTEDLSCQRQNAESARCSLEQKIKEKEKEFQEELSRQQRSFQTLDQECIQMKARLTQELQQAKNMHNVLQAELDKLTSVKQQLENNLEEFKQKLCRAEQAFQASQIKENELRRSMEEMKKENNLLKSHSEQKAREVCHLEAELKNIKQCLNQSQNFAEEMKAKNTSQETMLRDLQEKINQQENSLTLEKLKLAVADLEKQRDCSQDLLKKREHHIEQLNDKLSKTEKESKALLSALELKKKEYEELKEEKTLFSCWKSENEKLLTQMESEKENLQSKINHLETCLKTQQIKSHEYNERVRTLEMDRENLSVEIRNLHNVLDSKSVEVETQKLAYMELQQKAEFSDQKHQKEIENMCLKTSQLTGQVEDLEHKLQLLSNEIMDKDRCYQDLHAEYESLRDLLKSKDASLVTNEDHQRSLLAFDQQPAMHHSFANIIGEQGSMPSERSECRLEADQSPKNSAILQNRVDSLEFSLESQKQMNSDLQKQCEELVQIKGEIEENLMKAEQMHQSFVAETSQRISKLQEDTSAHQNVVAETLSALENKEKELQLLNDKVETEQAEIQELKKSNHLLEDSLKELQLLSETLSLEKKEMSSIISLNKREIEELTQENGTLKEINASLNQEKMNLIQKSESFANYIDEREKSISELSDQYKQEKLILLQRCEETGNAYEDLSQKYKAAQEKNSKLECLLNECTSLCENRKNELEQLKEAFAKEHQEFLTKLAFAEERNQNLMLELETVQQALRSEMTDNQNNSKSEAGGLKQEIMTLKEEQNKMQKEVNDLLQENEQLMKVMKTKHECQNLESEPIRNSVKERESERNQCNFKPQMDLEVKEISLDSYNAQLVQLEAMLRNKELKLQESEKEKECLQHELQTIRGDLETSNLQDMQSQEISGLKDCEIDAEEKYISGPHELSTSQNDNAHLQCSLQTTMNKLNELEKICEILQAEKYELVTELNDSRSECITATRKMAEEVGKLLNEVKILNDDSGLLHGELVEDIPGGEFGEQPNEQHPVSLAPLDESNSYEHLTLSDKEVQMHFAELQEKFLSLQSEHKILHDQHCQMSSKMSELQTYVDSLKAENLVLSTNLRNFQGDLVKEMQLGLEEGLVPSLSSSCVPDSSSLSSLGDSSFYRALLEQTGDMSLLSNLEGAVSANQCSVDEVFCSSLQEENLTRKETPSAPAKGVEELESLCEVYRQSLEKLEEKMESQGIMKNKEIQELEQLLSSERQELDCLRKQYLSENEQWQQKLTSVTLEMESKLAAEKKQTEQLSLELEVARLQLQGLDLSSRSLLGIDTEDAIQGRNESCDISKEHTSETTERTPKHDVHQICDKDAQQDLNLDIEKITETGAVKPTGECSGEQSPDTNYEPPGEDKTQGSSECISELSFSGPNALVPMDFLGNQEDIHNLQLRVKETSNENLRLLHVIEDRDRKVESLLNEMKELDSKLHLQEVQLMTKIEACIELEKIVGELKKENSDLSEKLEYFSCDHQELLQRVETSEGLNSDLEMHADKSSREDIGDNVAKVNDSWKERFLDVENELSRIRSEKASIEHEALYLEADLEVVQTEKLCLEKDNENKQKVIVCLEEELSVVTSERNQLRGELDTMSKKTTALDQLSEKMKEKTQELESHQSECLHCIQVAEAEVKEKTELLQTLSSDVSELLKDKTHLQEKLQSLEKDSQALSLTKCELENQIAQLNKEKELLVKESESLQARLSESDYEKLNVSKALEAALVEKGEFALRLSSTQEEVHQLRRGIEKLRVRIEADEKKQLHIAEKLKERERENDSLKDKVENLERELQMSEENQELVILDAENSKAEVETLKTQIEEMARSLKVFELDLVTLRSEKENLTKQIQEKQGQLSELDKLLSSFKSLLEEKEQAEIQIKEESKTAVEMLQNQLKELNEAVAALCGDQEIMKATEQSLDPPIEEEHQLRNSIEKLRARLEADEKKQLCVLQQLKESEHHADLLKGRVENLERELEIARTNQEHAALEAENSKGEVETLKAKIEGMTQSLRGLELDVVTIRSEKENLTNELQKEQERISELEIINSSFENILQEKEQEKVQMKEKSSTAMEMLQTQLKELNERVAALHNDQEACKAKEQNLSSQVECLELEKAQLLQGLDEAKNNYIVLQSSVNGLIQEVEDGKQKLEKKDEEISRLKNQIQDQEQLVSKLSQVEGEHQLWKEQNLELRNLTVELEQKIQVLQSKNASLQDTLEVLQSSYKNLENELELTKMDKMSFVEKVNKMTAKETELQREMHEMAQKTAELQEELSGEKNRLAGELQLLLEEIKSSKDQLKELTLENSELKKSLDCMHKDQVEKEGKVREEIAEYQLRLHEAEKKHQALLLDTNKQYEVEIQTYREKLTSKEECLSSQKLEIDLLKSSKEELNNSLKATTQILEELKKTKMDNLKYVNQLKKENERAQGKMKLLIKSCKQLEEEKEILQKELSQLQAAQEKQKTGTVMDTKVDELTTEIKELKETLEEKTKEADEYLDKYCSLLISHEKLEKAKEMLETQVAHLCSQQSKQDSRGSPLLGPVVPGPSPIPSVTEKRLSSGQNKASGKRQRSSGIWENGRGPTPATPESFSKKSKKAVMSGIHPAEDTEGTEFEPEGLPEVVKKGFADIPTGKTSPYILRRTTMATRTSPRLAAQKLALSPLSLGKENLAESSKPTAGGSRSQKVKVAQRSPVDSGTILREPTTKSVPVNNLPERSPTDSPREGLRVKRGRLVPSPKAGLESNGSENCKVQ
UniProt Q9Y281, whole entry, looked up: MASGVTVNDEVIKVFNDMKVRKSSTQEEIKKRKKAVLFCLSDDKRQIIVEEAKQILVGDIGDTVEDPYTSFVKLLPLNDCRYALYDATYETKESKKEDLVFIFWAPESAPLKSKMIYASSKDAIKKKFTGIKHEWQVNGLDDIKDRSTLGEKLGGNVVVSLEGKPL
UniProt Q9Y232: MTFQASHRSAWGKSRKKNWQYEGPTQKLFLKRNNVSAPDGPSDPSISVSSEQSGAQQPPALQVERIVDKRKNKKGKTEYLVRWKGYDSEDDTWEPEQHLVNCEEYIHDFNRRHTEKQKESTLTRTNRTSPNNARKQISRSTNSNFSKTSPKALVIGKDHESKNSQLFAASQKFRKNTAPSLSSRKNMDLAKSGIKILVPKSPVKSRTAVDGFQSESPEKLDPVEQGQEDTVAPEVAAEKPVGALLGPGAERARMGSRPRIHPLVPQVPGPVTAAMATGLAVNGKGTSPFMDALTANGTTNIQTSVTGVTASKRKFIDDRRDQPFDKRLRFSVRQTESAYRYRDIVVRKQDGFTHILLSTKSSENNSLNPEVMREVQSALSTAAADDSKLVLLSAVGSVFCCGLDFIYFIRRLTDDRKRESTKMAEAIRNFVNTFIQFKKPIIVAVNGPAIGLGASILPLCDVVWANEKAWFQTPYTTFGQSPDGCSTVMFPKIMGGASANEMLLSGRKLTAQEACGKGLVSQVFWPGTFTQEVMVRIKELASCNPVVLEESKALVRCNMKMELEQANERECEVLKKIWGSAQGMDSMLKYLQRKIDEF

Columns and labels:
Experiment in all cases: log2 fold change, soluble protein after heating vs DMSO (PISA); higher = thermal stabilisation; K562 cells, 10 uM, 30 min; active = over 0.2 and 3.5 SD of the protein, either way, in both replicates (recomputed)
[1] = compound: CC1=C(C=C(C=C1)NC(=O)C2=CC(=CC=C2)C(C)(C)C#N)NC3=CC4=C(C=C3)N=CN(C4=O)C
How it was run: (§1)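 K562 cells at 2×10^6 cells/mL were exposed to 10 μM compound for 30 min, then aliquots were heated for 3 min across 48°C-58°C, pooled, and extracted in PBS containing 0.5% NP-40 at 4°C. The supernatant after 21,000xg for 90 min was taken as soluble protein and measured by TMTpro 16plex LC-MS/MS with channel sums equalised. Thermal stability is reported relative to control samples, with values from duplicates. Fold changes are given on a log2 scale.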

[2] = compound: CC1=C(C=C(C=C1)NC(=O)C2=CC(=CC=C2)N(C)C)NC(=O)C3=CC=C(C=C3)O
How it was run: as §1

[3] = compound: CC1=CC=C(C=C1)SC2=C3C=C(SC3=CN=C2)C(=O)N
How it was run: as §1

[4] = compound: CC1=NC(=CC=C1)C2=C(N=C(N2)C(C)(C)C)C3=CC4=NC=CN=C4C=C3
How it was run: as §1

Nexturastat A = compound: CCCCN(Cc1ccc(C(=O)NO)cc1)C(=O)Nc1ccccc1 [Nexturastat A]
How it was run: as §1

vemurafenib = compound: CCCS(=O)(=O)Nc1ccc(F)c(C(=O)c2c[nH]c3ncc(-c4ccc(Cl)cc4)cc23)c1F [vemurafenib]
How it was run: as §1

[5] = compound: CCCS(=O)(=O)Nc1ccc(F)c(C(=O)c2c[nH]c3ncc(Cl)cc23)c1F
How it was run: as §1

[6] = compound: CCCc1cc(C)[nH]c(=O)c1CNC(=O)c1cc(-c2ccnc(N3CCN(C)CC3)c2)cc2c1cnn2C(C)C
How it was run: as §1

givinostat = compound: CCN(CC)Cc1ccc2cc(COC(=O)Nc3ccc(C(=O)NO)cc3)ccc2c1 [givinostat]
How it was run: as §1

barasertib = compound: CCN(CCCOc1ccc2c(Nc3cc(CC(=O)Nc4cccc(F)c4)[nH]n3)ncnc2c1)CCOP(=O)(O)O [barasertib]
How it was run: as §1

[7] = compound: CC[C@@H]1C(=O)N(C)c2cnc(Nc3ccc(C(=O)NC4CCN(C)CC4)cc3OC)nc2N1C1CCCC1
How it was run: as §1

volasertib = compound: CC[C@@H]1C(=O)N(C)c2cnc(Nc3ccc(C(=O)N[C@H]4CC[C@H](N5CCN(CC6CC6)CC5)CC4)cc3OC)nc2N1C(C)C [volasertib]
How it was run: as §1

[8] = compound: CC[C@H](C)N1C=C(C2=C(C=C(C=C21)C3=CN=C(C=C3)N4CCNCC4)C(=O)NCC5=C(C=C(NC5=O)C)C)C
How it was run: as §1

epoxomicin = compound: CC[C@H](C)[C@@H](C(=O)N[C@@H]([C@@H](C)O)C(=O)N[C@@H](CC(C)C)C(=O)[C@]1(CO1)C)NC(=O)[C@H]([C@@H](C)CC)N(C)C(=O)C [epoxomicin]
How it was run: as §1

[9] = compound: CCn1c(C(=O)N(C2CC2)C2CC2)cc2c3c(ncn3C)c(Nc3cc(C)n(C)n3)nc21
How it was run: as §1

[10] = compound: CCn1cc(-c2ccnc3[nH]c(-c4cccc(CN(C)C)c4)cc23)c(-c2ccc(NC(=O)N(C)C)cc2)n1
How it was run: as §1

[11] = compound: CN(C)CC(=O)Nc1ccc2[nH]c(=O)c3ccccc3c2c1
How it was run: as §1

rosiglitazone = compound: CN(CCOC1=CC=C(C=C1)C[C@H]2C(=O)NC(=O)S2)C3=CC=CC=N3 (racemic) [rosiglitazone]
How it was run: as §1

[12] = compound: CN1C2=C(C3=C1C(=O)N(N=C3)CC4=CC(=CC=C4)N)SC(=C2)S(=O)C
How it was run: as §1

[13] = compound: CN1CCC(CNc2ccc3ncc(-c4cccc(OC(F)(F)F)c4)n3n2)CC1
How it was run: as §1

Measured: log2 fold change

CDS2 (UniProt O95674)
inactive: [1] -0.001 | [2] -0.026 | [3] -0.016 | [4] -0.062 | Nexturastat A -0.009 | vemurafenib 0.035 | [5] 0.057 | [6] -0.011 | givinostat 0.021 | barasertib 0.029 | [7] -0.039 | volasertib 0.028 | [8] -0.075 | epoxomicin -0.036 | [9] 0.032 | [10] -0.023 | [11] 0.015 | rosiglitazone -0.003 | [12] 0.046 | [13] -0.009

CHEK2 isoform 9 (UniProt O96017)
inactive: [1] -0.006 | [2] -0.001 | [3] -0.011 | [4] -0.014 | Nexturastat A -0.079 | vemurafenib -0.033 | [5] -0.021 | [6] -0.015 | givinostat -0.019 | barasertib 0.05 | [7] -0.023 | volasertib -0.075 | [8] 0.016 | epoxomicin 0.093 | [9] 0.004 | [10] -0.05 | [11] -0.027 | rosiglitazone 0.069 | [12] -0.038 | [13] 0.004

CFAP298 (UniProt P57076)
inactive: [1] -0.09 | [2] 0.053 | [3] -0.167 | [4] -0.097 | Nexturastat A 0.203 | vemurafenib -0.031 | [5] 0.093 | [6] 0.095 | givinostat 0.174 | barasertib 0.214 | [7] 0.151 | volasertib -0.58 | [8] -0.179 | epoxomicin 0.115 | [9] -0.072 | [10] -0.027 | [11] 0.044 | rosiglitazone 0.094 | [12] 0.37 | [13] -0.068

CFAP20 (UniProt Q9Y6A4)
inactive: [1] -0.043 | [2] 0.004 | [3] -0.049 | [4] -0.038 | Nexturastat A 0.134 | vemurafenib -0.011 | [5] 0.021 | [6] -0.107 | givinostat 0.019 | barasertib -0.044 | [7] 0.11 | volasertib -0.002 | [8] 0.041 | epoxomicin -0.113 | [9] -0.028 | [10] 0.08 | [11] -0.002 | rosiglitazone -0.003 | [12] 0.113 | [13] -0.006

CEP76 (UniProt Q8TAP6)
inactive: [1] 0.018 | [2] -0.044 | [3] -0.036 | [4] -0.012 | Nexturastat A 0.018 | vemurafenib -0.029 | [5] -0.101 | [6] -0.036 | givinostat -0.01 | barasertib -0.011 | [7] 0.043 | volasertib -0.04 | [8] -0.019 | epoxomicin -0.031 | [9] 0.003 | [10] -0.044 | [11] 0.035 | rosiglitazone 0.003 | [12] 0.005 | [13] 0.019

CHD6 (UniProt Q8TD26)
inactive: [1] 0.177 | [2] -0.008 | [3] -0.29 | [4] -0.324 | Nexturastat A -0.284 | vemurafenib 0.12 | [5] -0.125 | [6] -0.092 | givinostat -0.104 | barasertib -0.1 | [7] -0.061 | volasertib 0.27 | [8] 0.14 | epoxomicin -0.064 | [9] 0.45 | [10] -0.175 | [11] 0.023 | rosiglitazone 0.004 | [12] -0.031 | [13] -0.003

CENPF (UniProt P49454)
inactive: [1] -0.067 | [2] 0.017 | [3] -0.06 | [4] -0.08 | Nexturastat A 0.05 | vemurafenib -0.037 | [5] -0.047 | [6] 0.043 | givinostat -0.011 | barasertib -0.103 | [7] 0.075 | volasertib 0.009 | [8] -0.003 | epoxomicin -0.008 | [9] 0.048 | [10] 0.041 | [11] -0.046 | rosiglitazone -0.058 | [12] 0.053 | [13] 0.076

CFL2 (UniProt Q9Y281)
inactive: [1] 0.062 | [2] -0.034 | [3] -0.024 | [4] 0 | Nexturastat A -0.151 | vemurafenib -0.011 | [5] -0.049 | [6] -0.143 | givinostat 0.063 | barasertib 0.022 | [7] 0.001 | volasertib 0.047 | [8] -0.041 | epoxomicin -0.098 | [9] -0.01 | [10] -0.065 | [11] -0.016 | rosiglitazone -0.003 | [12] -0.086 | [13] 0.122

CDCA8 (UniProt Q53HL2)
inactive: [1] -0.201 | [2] 0.011

Reprinted from the entries so far (two entries):
CHD6 (UniProt Q8TD26)
inactive: [1] 0.177 | [2] -0.008 | [3] -0.29 | [4] -0.324 | Nexturastat A -0.284 | vemurafenib 0.12 | [5] -0.125 | [6] -0.092 | givinostat -0.104 | barasertib -0.1 | [7] -0.061 | volasertib 0.27 | [8] 0.14 | epoxomicin -0.064 | [9] 0.45 | [10] -0.175 | [11] 0.023 | rosiglitazone 0.004 | [12] -0.031 | [13] -0.003

CENPF (UniProt P49454)
inactive: [1] -0.067 | [2] 0.017 | [3] -0.06 | [4] -0.08 | Nexturastat A 0.05 | vemurafenib -0.037 | [5] -0.047 | [6] 0.043 | givinostat -0.011 | barasertib -0.103 | [7] 0.075 | volasertib 0.009 | [8] -0.003 | epoxomicin -0.008 | [9] 0.048 | [10] 0.041 | [11] -0.046 | rosiglitazone -0.058 | [12] 0.053 | [13] 0.076

Continuation.

CDCP1 (UniProt Q9H5V8)
inactive: [1] 0.038 | [2] 0.017 | [3] -0.025 | [4] -0.015 | Nexturastat A 0.014 | vemurafenib 0.014 | [5] -0.053 | [6] -0.026 | givinostat 0.02 | barasertib -0.006 | [7] 0.087 | volasertib -0.011 | [8] -0.016 | epoxomicin -0.022 | [9] -0.02 | [10] 0.043 | [11] 0.023 | rosiglitazone 0.02 | [12] -0.125 | [13] 0.179

CERS5 (UniProt Q8N5B7)
inactive: [1] -0.193 | [2] -0.043 | [3] 0.053 | [4] 0.005 | Nexturastat A -0.004 | vemurafenib -0.004 | [5] 0.016 | [6] 0.002 | givinostat -0.022 | barasertib -0.049 | [7] 0.06 | volasertib -0.014 | [8] 0.007 | epoxomicin -0.005 | [9] 0.073 | [10] -0.11 | [11] -0.035 | rosiglitazone 0.047 | [12] -0.048 | [13] -0.241

CHAF1B (UniProt Q13112)
inactive: [1] 0.009 | [2] 0.016 | [3] -0.01 | [4] -0.038 | Nexturastat A -0.013 | vemurafenib -0.061 | [5] -0.025 | [6] -0.036 | givinostat -0.01 | barasertib -0.013 | [7] 0.019 | volasertib 0.02 | [8] -0.053 | epoxomicin -0.016 | [9] 0.024 | [10] -0.012 | [11] -0.029 | rosiglitazone 0.007 | [12] -0.037 | [13] -0.014

CFDP1 (UniProt Q9UEE9)
inactive: [1] -0.045 | [2] 0.01 | [3] 0.018 | [4] 0.026 | Nexturastat A -0.016 | vemurafenib -0.015 | [5] -0.013 | [6] -0.094 | givinostat 0.013 | barasertib -0.005 | [7] 0.034 | volasertib 0.076 | [8] -0.04 | epoxomicin 0.031 | [9] 0.015 | [10] -0.019 | [11] -0.026 | rosiglitazone -0.004 | [12] -0.022 | [13] 0.001

CHKB (UniProt Q9Y259)
inactive: [1] -0.159 | [2] -0.003 | [3] -0.01 | [4] 0.029 | Nexturastat A -0.04 | vemurafenib 0.145 | [5] -0.011 | [6] 0.023 | givinostat 0.051 | barasertib 0.28 | [7] 0.022 | volasertib 0.066 | [8] 0.082 | epoxomicin 0.004 | [9] 0.032 | [10] -0.072 | [11] 0.02 | rosiglitazone -0.075 | [12] 0.014 | [13] 0.255

CDYL (UniProt Q9Y232)
inactive: [1] -0.008 | [2] 0.019 | [3] -0.028 | [4] 0.02 | Nexturastat A -0.037 | vemurafenib -0.01 | [5] -0.063 | [6] 0.02 | givinostat 0.005 | barasertib 0.028 | [7] -0.085 | volasertib -0.021 | [8] 0.015 | epoxomicin -0.004 | [9] -0.006 | [10] 0.053 | [11] -0.06 | rosiglitazone 0 | [12] -0.057 | [13] 0.063

CEP44 (UniProt Q9C0F1)
inactive: [1] -0.031 | [2] -0.072 | [3] 0.131 | [4] -0.008 | Nexturastat A 0.112 | vemurafenib 0.01 | [5] 0.067 | [6] -0.077 | givinostat -0.016 | barasertib 0.079 | [7] 0.087 | volasertib -0.382 | [8] -0.044 | epoxomicin -0.145 | [9] 0.05 | [10] 0.065 | [11] -0.035 | rosiglitazone 0.167 | [12] 0.143 | [13] -0.083

CDCA5 (UniProt Q96FF9)
inactive: [1] -0.048 | [2] 0.149 | [3] -0.066 | [4] -0.286 | Nexturastat A -0.015 | vemurafenib 0.072 | [5] -0.048 | [6] 0.009 | givinostat 0.108 | barasertib 0.001 | [7] 0.121 | volasertib -0.036 | [8] 0.091 | epoxomicin 0.047 | [9] 0.037 | [10] 0.005 | [11] 0.041 | rosiglitazone 0 | [12] -0.113 | [13] 0.021
